From article PMC12092617
These are yes or no findings as the source states them, for the method shown. Binding seen in cells or lysates may run through a third protein. A yes stands for co-enrichment or nearness to the bait. Other partners may have been found.

Target: T1, SLC25A10 (mitochondrial dicarboxylate carrier) (human (endogenous in PC-3 and 22RV1)) (UniProt Q9UBX3)
T1 sequence: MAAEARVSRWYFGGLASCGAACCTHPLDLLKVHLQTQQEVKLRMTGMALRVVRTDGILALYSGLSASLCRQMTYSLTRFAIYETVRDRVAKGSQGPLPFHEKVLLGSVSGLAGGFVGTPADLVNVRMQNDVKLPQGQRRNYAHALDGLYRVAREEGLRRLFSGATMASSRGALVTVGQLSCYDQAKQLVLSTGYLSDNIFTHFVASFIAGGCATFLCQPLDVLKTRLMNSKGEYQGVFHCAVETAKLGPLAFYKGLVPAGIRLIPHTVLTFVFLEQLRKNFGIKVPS
Assay: affinity purification with mass spectrometry; IP with anti-SLC25A10 antibody (control IgG) from PC-3 and 22RV1 lysates in RIPA buffer, protein A/G magnetic beads, 4 °C overnight; eluates by SDS-PAGE and Orbitrap mass spectrometry

For “SQSTM1 (p62), endogenous (from UniProt Q13501 1-440)”, the binding was “binds”.
